Measurements published in publication PMC10499034.
These are yes or no findings as the source states them, for the method shown. In cells and extracts the contact can be indirect. Some binding calls cover weakened binding; strength is not graded here. Where a sequence is shown, tags or fusion partners need not be part of it.

T1: GST-tagged Rab19 (UniProt A4D1S5)
T1 sequence: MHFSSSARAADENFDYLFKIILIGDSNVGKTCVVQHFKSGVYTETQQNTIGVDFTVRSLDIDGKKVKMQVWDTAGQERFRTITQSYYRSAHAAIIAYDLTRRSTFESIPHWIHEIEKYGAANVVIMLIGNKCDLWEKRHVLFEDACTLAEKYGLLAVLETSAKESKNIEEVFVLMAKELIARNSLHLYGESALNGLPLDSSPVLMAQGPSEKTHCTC


Columns and labels:
[1] = biological target: T1, GST-tagged Rab19; assay: pull-down; purified GST–Rab19 added to lysates of HEK293T cells overexpressing HA–Vps3 or Vps8–GFP, captured on glutathione beads; western blot; only the target purified
[2] = biological target: T1, GST-tagged Rab19; assay: pull-down; purified GST–Rab19 added to HEK293T cell lysates (with siRNA knockdown of Vps39, or of Vps41 and Vps39 together; also with purified recombinant Rab7A added), captured on glutathione beads; immunoblot for endogenous Vps11; only the target purified

binding [1] | binding [2] | Binder
binds | – | Vps8–GFP (protein, UniProt Q8N3P4 1-1428) MENEPDHENVEQSLCAKTSEEELNKSFNLEASLSKFSYIDMDKELEFKNDLIDDKEFDIPQVDTPPTLESILNETDDEDESFILEDPTLLNIDTIDSHSYDTSSVASSDSGDRTNLKRKKKLPDSFSLHGSVMRHSLLKGISAQIVSAADKVDAGLPTAIAVSSLIAVGTSHGLALIFGKDQNQALRLCLGSTSVGGQYGAISALSINNDCSRLLCGFAKGQITMWDLASGKLLRSITDAHPPGTAILHIKFTDDPTLAICNDSGGSVFELTFKRVMGVRTCESRCLFSGSKGEVCCIEPLHSKPELKDHPITQFSLLAMASLTKILVIGLKPSLKVWMTFPYGRMDPSSVPLLAWHFVAVQNYVNPMLAFCRGDVVHFLLVKRDESGAIHVTKQKHLHLYYDLINFTWINSRTVVLLDSVEKLHVIDRQTQEELETVEISEVQLVYNSSHFKSLATGGNVSQALALVGEKACYQSISSYGGQIFYLGTKSVYVMMLRSWRERVDHLLKQDCLTEALALAWSFHEGKAKAVVGLSGDASKRKAIVADRMVEILFHYADRALKKCPDQGKIQVMEQHFQDMVPVIVDYCLLLQRKDLLFSQMYDKLSENSVAKGVFLECLEPYILSDKLVGITPQVMKDLIVHFQDKKLMENVEALIVHMDITSLDIQQVVLMCWENRLYDAMIYVYNRGMNEFISPMEKLFRVIAPPLNAGKTLTDEQVVMGNKLLVYISCCLAGRAYPLGDIPEDLVPLVKNQVFEFLIRLHSAEASPEEEIYPYIRTLLHFDTREFLNVLALTFEDFKNDKQAVEYQQRIVDILLKVMVENSDFTPSQVGCLFTFLARQLAKPDNTLFVNRTLFDQVLEFLCSPDDDSRHSERQQVLLELLQAGGIVQFEESRLIRMAEKAEFYQICEFMYEREHQYDKIIDCYLRDPLREEEVFNYIHNILSIPGHSAEEKQSVWQKAMDHIEELVSLKPCKAAELVATHFSGHIETVIKKLQNQVLLFKFLRSLLDPREGIHVNQELLQISPCITEQFIELLCQFNPTQVIETLQVLECYRLEETIQITQKYQLHEVTAYLLEKKGDIHGAFLIMLERLQSKLQEVTHQGENTKEDPSLKDVEDTMVETIALCQRNSHNLNQQQREALWFPLLEAMMAPQKLSSSAIPHLHSEALKSLTMQVLNSMAAFIALPSILQRILQDPVYGKGKLGEIQGLILGMLDTFNYEQTLLETTTSLLNQDLHWSLCNLRASVTRGLNPKQDYCSICLQQYKRRQEMADEIIVFSCGHLYHSFCLQNKECTVEFEGQTRWTCYKCSSSNKVGKLSENSSEIKKGRITPSQVKMSPSYHQSKGDPTAKKGTSEPVLDPQQIQAFDQLCRLYRGSSRLALLTELSQNRSSESYRPFSGSQSAPAFNSIFQNENFQLQLIPPPVTED
– | binds | Vps11 (endogenous, HEK293T cells) (protein, UniProt Q9H270 1-941) MAAYLQWRRFVFFDKELVKEPLSNDGAAPGATPASGSAASKFLCLPPGITVCDSGRGSLVFGDMEGQIWFLPRSLQLTGFQAYKLRVTHLYQLKQHNILASVGEDEEGINPLVKIWNLEKRDGGNPLCTRIFPAIPGTEPTVVSCLTVHENLNFMAIGFTDGSVTLNKGDITRDRHSKTQILHKGNYPVTGLAFRQAGKTTHLFVVTTENVQSYIVSGKDYPRVELDTHGCGLRCSALSDPSQDLQFIVAGDECVYLYQPDERGPCFAFEGHKLIAHWFRGYLIIVSRDRKVSPKSEFTSRDSQSSDKQILNIYDLCNKFIAYSTVFEDVVDVLAEWGSLYVLTRDGRVHALQEKDTQTKLEMLFKKNLFEMAINLAKSQHLDSDGLAQIFMQYGDHLYSKGNHDGAVQQYIRTIGKLEPSYVIRKFLDAQRIHNLTAYLQTLHRQSLANADHTTLLLNCYTKLKDSSKLEEFIKKKSESEVHFDVETAIKVLRQAGYYSHALYLAENHAHHEWYLKIQLEDIKNYQEALRYIGKLPFEQAESNMKRYGKILMHHIPEQTTQLLKGLCTDYRPSLEGRSDREAPGCRANSEEFIPIFANNPRELKAFLEHMSEVQPDSPQGIYDTLLELRLQNWAHEKDPQVKEKLHAEAISLLKSGRFCDVFDKALVLCQMHDFQDGVLYLYEQGKLFQQIMHYHMQHEQYRQVISVCERHGEQDPSLWEQALSYFARKEEDCKEYVAAVLKHIENKNLMPPLLVVQTLAHNSTATLSVIRDYLVQKLQKQSQQIAQDELRVRRYREETTRIRQEIQELKASPKIFQKTKCSICNSALELPSVHFLCGHSFHQHCFESYSESDADCPTCLPENRKVMDMIRAQEQKRDLHDQFQHQLKCSNDSFSVIADYFGRGVFNKLTLLTDPPTARLTSSLEAGLQRDLLMHSRRGT
binds | – | HA–Vps3 (protein, UniProt Q8WUH2 1-860) MMSIKAFTLVSAVERELLMGDKERVNIECVECCGRDLYVGTNDCFVYHFLLEERPVPAGPATFTATKQLQRHLGFKKPVNELRAASALNRLLVLCDNSISLVNMLNLEPVPSGARIKGAATFALNENPVSGDPFCVEVCIISVKRRTIQMFLVYEDRVQIVKEVSTAEQPLAVAVDGHFLCLALTTQYIIHNYSTGVSQDLFPYCSEERPPIVKRIGRQEFLLAGPGGLGMFATVAGISQRAPVHWSENVIGAAVSFPYVIALDDEFITVHSMLDQQQKQTLPFKEGHILQDFEGRVIVATSKGVYILVPLPLEKQIQDLLASRRVEEALVLAKGARRNIPKEKFQVMYRRILQQAGFIQFAQLQFLEAKELFRSGQLDVRELISLYPFLLPTSSSFTRSHPPLHEYADLNQLTQGDQEKMAKCKRFLMSYLNEVRSTEVANGYKEDIDTALLKLYAEADHDSLLDLLVTENFCLLTDSAAWLEKHKKYFALGLLYHYNNQDAAAVQLWVNIVNGDVQDSTRSDLYEYIVDFLTYCLDEELVWAYADWVLQKSEEVGVQVFTKRPLDEQQKNSFNPDDIINCLKKYPKALVKYLEHLVIDKRLQKEEYHTHLAVLYLEEVLLQRASASGKGAEATETQAKLRRLLQKSDLYRVHFLLERLQGAGLPMESAILHGKLGEHEKALHILVHELQDFAAAEDYCLWCSEGRDPPHRQQLFHTLLAIYLHAGPTAHELAVAAVDLLNRHATEFDAAQVLQMLPDTWSVQLLCPFLMGAMRDSIHARRTMQVALGLARSENLIYTYDKMKLKGSSIQLSDKKLCQICQNPFCEPVFVRYPNGGLVHTHCAASRHTNPSSSSPGTRT
